# Measurements taken from PubChem BioAssay AID2417 (National Center for Advancing Translational Sciences (NCATS), 2010).
# Screen size: about 140,000 compounds; about 4,300 (3.1%) were called active. The inconclusive results got no clear call from the source; some entries with a clear call stand among them for comparison.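 The calls were made as follows: active = readout at or below -70, meaning at least 70% loss of cells showing the perinucleolar compartment, a nuclear body marking cancer cells; inconclusive = readout between -30 and a set limit; inactive = the rest.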
# Assay: High Content Assay for Compounds that inhibit the Assembly of the Perinucleolar Compartment;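 also: plate controls were DMSO wells for no effect and camptothecin positive control wells for full effect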
# Settings: PC3M PTB-GFP, PNC prevalence imaging, 16 h; at 10 µM; hits give low values
# How it was run: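 Read-out is percentage of cells bearing a perinucleolar compartment, from automated 20x imaging of fixed, Hoechst-stained PC3M PTB-GFP cells. Cells were seeded 4 h, then exposed 16 h to compound (23 nl of library stock) in duplicate plates.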
row,Compound,"activity change (PNC), negative = inhibition"
1,CC(Sc1ccc(Cl)cc1)C(=O)NCc1ccc2c(c1)OCO2 (stereo not given),inconclusive: -44.1%
2,CC(Cl)C(=O)NC(=O)NC12CC3CC(CC(C3)C1)C2 (stereo not given),inactive: 30.1%
3,Cc1ccc(CN2CC(C(=O)Nc3cccc(S(=O)(=O)N4CCCCC4)c3)CC2=O)cc1 (stereo not given),inactive: 22.7%
4,Cc1ccc(C)c(N=C2CCCN2Cc2ccccc2)c1C#N,active: -119%
5,CC(C)CN(CC(C)C)C(=O)C12CCC(C)(C(=O)C1)C2(C)C (stereo not given),inconclusive: -55.8%
6,COCc1nnc(NC(=O)c2ccc(S(=O)(=O)N(C)c3ccccc3)cc2)o1,inconclusive: -43.3%
7,COc1cc2c(cc1OC)C1=C(C#N)CC/C(=N\S(=O)(=O)c3ccccc3)N1CC2,inactive: 24.8%
8,NC1=NC(=Nc2ccc(Br)cc2)c2ccccc21,inconclusive: -31.5%
9,O=c1[nH]c(CN2CCC(c3nc4ccccc4s3)CC2)nc2sc3c(c12)CCC3,inactive: -4.14%
10,O=C(Cn1ncc(Cl)c(Cl)c1=O)NCC1CCCCC1,inconclusive: -32.2%
11,COc1ccc(N=Nc2nc3cc(Br)c(Br)cc3n2C)c(OC)c1,inactive: -15.8%
12,N#Cc1nc(-c2cccs2)oc1NCc1ccccc1Cl,inconclusive: -34.7%
13,CC1=NN(c2ccccc2)C(=O)C1c1ccccc1 (stereo not given),active: -90.9%
14,COc1ccc(OC)c(C2C(C(=O)c3cc4ccccc4o3)=C(O)C(=O)N2c2cc(C)on2)c1 (stereo not given),inconclusive: -31.7%
15,CCC(c1nnc(SCC(=O)Nc2cc(Cl)ccc2C#N)n1C1CCCCC1)N(C)C (stereo not given),active: -107%
16,Cc1cc(C)c2[nH]c(=O)c(CN(Cc3nnnn3C3CCCC3)C3CCCCC3)cc2c1,inactive: 6.27%
17,O=C(NCCCN1CCOCC1)c1ccccc1,inconclusive: -33%
18,O=C(O)Cn1nc(C(F)(F)F)c2c1CCC2,inactive: -3.05%
19,Fc1ccc(COc2ccccc2CNCc2ccncc2)cc1,inconclusive: -68.1%
20,N#Cc1ccc(NC(=O)CCc2nc3ccccc3s2)cc1,inconclusive: -42.1%
21,O=C(NCCc1ccccc1)NC1CCCCC1,inconclusive: -52.5%
22,O=C(COC(=O)C1(c2ccc(F)cc2)CCCC1)N1CCc2ccccc21,active: -109%
23,N#C/C(=C\c1ccc([N+](=O)[O-])cc1)c1nc(C2CC2)cs1,inactive: 21.4%

row,Compound,"activity change (PNC), negative = inhibition"
1,COc1ccc(OCC(=O)OCCN(C)C)cc1,inconclusive: -76.2%
2,CC(=O)NC(Cc1ccccc1)C(=O)NC1CCN(C(=O)c2ccc([N+](=O)[O-])cc2)CC1 (stereo not given),inconclusive: -68.9%
3,CN1/C(=C/C=C(/C#N)C(N)=O)C(C)(C)c2ccccc21,active: -84.9%
4,COc1ccccc1NC1=C(Cl)C(=O)N(C2CCCCC2)C1=O,inconclusive: -49.4%
5,CSCCC1C(=O)OC2(C)CC(C)(C)NC(=S)N12 (stereo not given),active: -100%
6,O=C(NCC1CCCO1)c1cnn2c1NC(c1ccccc1)CC2C(F)(F)F (stereo not given),inactive: -26.7%
7,O=C(N/N=C/C1C(c2ccccc2)C1(Cl)Cl)c1cccc(Cl)c1 (stereo not given),inactive: 4.24%
8,CC1=C(C(=O)Nc2ccc(Cl)cc2)C2(CCCCC2)C(C(N)=O)C(=S)N1 (stereo not given),inconclusive: -36.8%
9,Cc1ccccc1C1=NC(C(F)(F)F)(C(F)(F)F)c2c(n(C)c(=O)n(C)c2=O)N1,inconclusive: -40.8%
10,c1ccc(OCCOc2ncnc3sccc23)cc1,inconclusive: -55.6%
11,CCOC(=O)c1cc(C#N)c(Oc2ccccc2OC)nc1-c1ccccc1,inactive: 58.9%
12,COc1cc(C(=O)NC(=S)Nc2ccc3oc(=O)ccc3c2)cc(OC)c1OC,inactive: -3.47%
13,CN(c1cccc(NS(=O)(=O)c2cccs2)c1)S(C)(=O)=O,inactive: 14.1%
14,CCc1ccc(C2C(C#N)=C(N)SC(N)=C2C#N)cc1,inconclusive: -32.2%
15,CNC(=O)Nc1cccc(C(F)(F)F)c1,active: -100%
16,COc1c(Br)cc(Br)cc1/C=N/n1c(C)nnc1C,inactive: -13.1%
17,CCNc1nc(Oc2ccc(=O)[nH]n2)nc(N2CCOCC2)n1,inconclusive: -32%
18,O=c1cc(C(Cl)(Cl)Cl)oc2c1ccc1ccccc12,inconclusive: -60.6%
19,CCOC(=O)CNC(=O)CSc1nnc(Cn2cnc3ccccc32)n1C,inactive: 43.6%
20,CC1CN(S(=O)(=O)c2ccc(NC(=O)CCCN3C(=O)c4ccccc4C3=O)cc2)CC(C)O1 (stereo not given),inconclusive: -51.6%
21,Cc1ccc(CSCC(=O)N/N=C/c2ccc(OCC(=O)Nc3ccc(C)cc3)cc2)cc1,inconclusive: -66%
22,CC(C)CNc1nc(Oc2ccc(=O)[nH]n2)nc(N(C)C)n1,inconclusive: -43.7%
23,CCN(CC)S(=O)(=O)c1cnccc1N1CCN(c2cccc(Cl)c2)CC1,inactive: 37.3%

row,Compound,"activity change (PNC), negative = inhibition"
1,O=C(Cc1cccs1)N1CCC(c2nc3c(nnn3Cc3ccccc3)c(=O)[nH]2)CC1,inactive: -13.8%
2,Clc1ccccc1-c1nnn(Cc2ccc(-c3nn[nH]n3)cc2)n1,inactive: 17.4%
3,CCOC(=O)CCCCC(=O)c1[nH]c(=O)[nH]c1CSc1nc(C)cc(=O)[nH]1,inconclusive: -39%
4,O=C1c2ccccc2CC1Sc1nnc(-c2ccncc2)o1 (stereo not given),inactive: 29%
5,COc1ccc(S(=O)(=O)N2CCCCC2)cc1NC(=O)CSc1ncnc2ccccc12,inactive: -6.59%
6,Cc1ccc2cc(C(c3nnnn3C(C)(C)C)N3CCCCCC3)c(=O)[nH]c2c1 (stereo not given),inconclusive: -61.6%
7,Cc1ccc(C)c(Oc2nnnn2-c2ccccc2)c1,inconclusive: -49%
8,Cc1ccc(-c2noc(CSc3nnc(Cc4ccccc4)n3-c3ccc(Cl)cc3)n2)cc1,inactive: -1.86%
9,Cc1occc1C(=O)NNC(=S)Nc1ccccc1,inconclusive: -73.5%
10,CCN1C(=O)CC(N2CCC(Cc3ccccc3)CC2)C1=O (stereo not given),inconclusive: -54.4%
11,CSc1nccc(N2CCN(c3ccc(F)cc3)CC2)n1,inconclusive: -75.9%
12,CC(C)n1c(SCc2cc(=O)[nH]c3ccccc23)nc2c1c(=O)n(C)c(=O)n2C,inconclusive: -46.9%
13,COc1ccc2[nH]c(=O)c(CNc3ccccc3)cc2c1,inconclusive: -32.6%
14,CC(NC(=O)CN1CCN(Cc2ccc(Cl)cc2)C1=O)c1ccc2c(c1)OCCO2 (stereo not given),inconclusive: -62.7%
15,CCCC(C(=O)O)N1C(=O)/C(=C/c2cccn2C)SC1=S (stereo not given),inconclusive: -34.9%
16,CN(C)S(=O)(=O)c1ccc(N2CCCC2)c(C(=O)Nc2ccc(N3CCOCC3)cc2)c1,inconclusive: -68.8%
17,O=C(CSc1nnc(Cc2ccccc2)o1)NC1CCCCC1,inconclusive: -72.7%
18,O=C(O)CCC(=O)OCC1CCCCC1,inconclusive: -59.2%
19,Cc1cccc(NC(=O)NCC(F)(F)F)n1,inconclusive: -31.1%
20,CCOC(=O)c1[nH]c(C)c(C(=O)Nc2cc(OC)ccc2OC)c1C,active: -107%
21,CC(C)c1cc(C(=O)Nc2cccc(Cl)c2)no1,inactive: 32.5%
22,COc1ccc(CNC(=O)/C=C/c2cc([N+](=O)[O-])ccc2OC(F)F)cc1OC,inconclusive: -35.2%
23,O=C(NCCN1CCCC1=O)Nc1ccccc1,inconclusive: -31.7%

row,Compound,"activity change (PNC), negative = inhibition"
1,Cc1cc(NC(=O)c2ccc(Br)c(S(=O)(=O)N3CCCC3)c2)no1,inconclusive: -76%
2,Cc1cc(Nc2nc3c(c(=O)n(C)c(=O)n3C)n2C)n(-c2ccc(Cl)cc2)n1,inconclusive: -39.1%
3,O=C(c1ccc(Nc2cccc(C(F)(F)F)c2)nc1)N1CCCC1,inconclusive: -42.3%
4,O=C(CCN1C(=O)C2C3C=CC(C3)C2C1=O)Nc1c(F)cc(F)cc1Br (stereo not given),inconclusive: -35.9%
5,CCCCC1CCC(C(=O)Nc2ccccc2)CC1 (stereo not given),inconclusive: -40%
6,COC(=O)Cc1ccc(NC(=S)N2CCN(c3ccc(F)cc3)CC2)cc1,active: -95.7%
7,Cc1ccc(NC(=S)NN2CCN(C)CC2)c(C)c1,inconclusive: -67.7%
8,CC(=O)N1CCc2cc(S(=O)(=O)NC(Cc3ccccc3)C(=O)Nc3cc(C)ccn3)ccc21 (stereo not given),inactive: -6.24%
9,Cc1cc2nc(C)n(CCCNC(=O)Nc3ccc(F)cc3)c2cc1C,inconclusive: -39%
10,CN(CC(=O)NCCc1ccccc1)S(=O)(=O)c1cccc2nsnc12,inconclusive: -73.1%
11,Cc1ccc(N=C2N=C(N)c3ccccc32)c(C)c1,inconclusive: -39.7%
12,Cc1ccc(-c2cc(C(=O)Nc3ccc(S(=O)(=O)Nc4cc(C)on4)cc3)c3ccccc3n2)c(C)c1,inconclusive: -50%
13,O=C(CC12CC3CC(CC(C3)C1)C2)N1CCOCC1,inconclusive: -60.1%
14,CC(=O)c1ccc(N(C(=O)CS(=O)CC(=O)Nc2ccc(F)cc2)C(C(=O)NC2CCCCC2)c2cccs2)cc1 (stereo not given),inactive: 31.4%
15,COc1ccccc1NC(=S)NNC(=O)c1ccccc1Br,inconclusive: -43.7%
16,CCc1nn(C(C)C(=O)Nc2cccc(C)c2C)c(=O)c2cc3occc3n12 (stereo not given),inconclusive: -47.6%
17,COC(=O)/C(=C1/Oc2ccc(C(C)(C)C)cc2S1)C(F)(F)F,inconclusive: -46.7%
18,O=C(Cn1cnc2c(oc3ccccc32)c1=O)N1CCCc2ccccc21,inconclusive: -61.4%
19,CC1=Nc2ccccc2/C1=C\c1nc(-c2ccccc2)oc1O,inconclusive: -45.1%
20,CCCC(c1nnnn1CS(=O)(=O)c1ccc(C)cc1)N1CCN(c2ccc(F)cc2)CC1 (stereo not given),inconclusive: -66.1%
21,C/C(CCN1CCCCc2nc(C)c(C)cc21)=N\O[C@@H](C)c1cn([C@H](CO)Cc2ccccc2)nn1,inconclusive: -77.1%

# Four entries from above, bar-delimited:
row | Compound | activity change (PNC), negative = inhibition
5 | CCCCC1CCC(C(=O)Nc2ccccc2)CC1 (stereo not given) | inconclusive: -40%
6 | COC(=O)Cc1ccc(NC(=S)N2CCN(c3ccc(F)cc3)CC2)cc1 | active: -95.7%
7 | Cc1ccc(NC(=S)NN2CCN(C)CC2)c(C)c1 | inconclusive: -67.7%
8 | CC(=O)N1CCc2cc(S(=O)(=O)NC(Cc3ccccc3)C(=O)Nc3cc(C)ccn3)ccc21 (stereo not given) | inactive: -6.24%
